The list shows a part of the results.
compound: CN(CCOC1=CC=C(C=C1)C[C@H]2C(=O)NC(=O)S2)C3=CC=CC=N3 (racemic) [rosiglitazone]; assay: log2 fold change, soluble protein after heating vs DMSO (PISA); higher = thermal stabilisation; K562 cells, 10 uM, 30 min; active = over 0.2 and 3.5 SD of the protein, either way, in both replicates (recomputed)
How it was run: (§1)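 Soluble protein was defined as the supernatant after 21,000xg for 90 min. It came from K562 cells at 2×10^6 cells/mL given 10 μM compound for 30 min, heated in aliquots for 3 min across 48°C-58°C, pooled, and extracted in PBS with 0.5% NP-40 at 4°C, and was quantified by TMTpro 16plex LC-MS/MS with equalised channel sums. Thermal stability against control samples, from duplicates, is reported as log2 fold change.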

By UniProt entry, the sequences of proteins in these tests, tags left out. Where a name states a change or a piece, a line headed by the entry shows the natural chain unless it says otherwise.
UniProt P00519, whole entry, looked up: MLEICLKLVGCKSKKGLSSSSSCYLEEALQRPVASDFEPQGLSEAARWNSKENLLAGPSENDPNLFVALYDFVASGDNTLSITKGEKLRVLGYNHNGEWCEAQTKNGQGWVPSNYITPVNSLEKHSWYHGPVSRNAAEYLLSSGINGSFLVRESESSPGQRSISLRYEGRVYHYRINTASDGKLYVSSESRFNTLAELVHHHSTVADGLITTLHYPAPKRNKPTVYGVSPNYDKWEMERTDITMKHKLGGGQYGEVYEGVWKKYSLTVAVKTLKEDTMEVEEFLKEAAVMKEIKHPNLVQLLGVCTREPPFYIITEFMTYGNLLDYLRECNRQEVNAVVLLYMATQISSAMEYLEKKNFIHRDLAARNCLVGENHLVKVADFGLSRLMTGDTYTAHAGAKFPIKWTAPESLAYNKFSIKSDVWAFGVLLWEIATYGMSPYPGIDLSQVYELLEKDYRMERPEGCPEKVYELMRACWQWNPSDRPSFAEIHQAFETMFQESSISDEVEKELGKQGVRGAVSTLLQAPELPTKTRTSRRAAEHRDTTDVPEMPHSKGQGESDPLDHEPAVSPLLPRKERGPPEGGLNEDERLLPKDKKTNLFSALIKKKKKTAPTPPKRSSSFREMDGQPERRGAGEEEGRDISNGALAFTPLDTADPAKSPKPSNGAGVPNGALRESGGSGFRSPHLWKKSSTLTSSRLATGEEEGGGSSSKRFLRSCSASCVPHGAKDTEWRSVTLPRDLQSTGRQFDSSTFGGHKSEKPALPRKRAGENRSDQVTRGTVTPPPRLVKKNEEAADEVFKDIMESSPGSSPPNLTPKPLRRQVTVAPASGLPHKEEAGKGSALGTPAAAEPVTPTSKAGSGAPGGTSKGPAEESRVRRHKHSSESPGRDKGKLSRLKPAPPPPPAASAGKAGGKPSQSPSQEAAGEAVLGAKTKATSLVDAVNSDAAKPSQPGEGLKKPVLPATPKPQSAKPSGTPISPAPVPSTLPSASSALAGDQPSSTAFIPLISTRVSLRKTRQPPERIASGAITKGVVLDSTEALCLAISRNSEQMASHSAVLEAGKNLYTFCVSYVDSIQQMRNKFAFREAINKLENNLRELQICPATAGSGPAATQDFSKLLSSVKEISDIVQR
UniProt O00763, whole entry, looked up: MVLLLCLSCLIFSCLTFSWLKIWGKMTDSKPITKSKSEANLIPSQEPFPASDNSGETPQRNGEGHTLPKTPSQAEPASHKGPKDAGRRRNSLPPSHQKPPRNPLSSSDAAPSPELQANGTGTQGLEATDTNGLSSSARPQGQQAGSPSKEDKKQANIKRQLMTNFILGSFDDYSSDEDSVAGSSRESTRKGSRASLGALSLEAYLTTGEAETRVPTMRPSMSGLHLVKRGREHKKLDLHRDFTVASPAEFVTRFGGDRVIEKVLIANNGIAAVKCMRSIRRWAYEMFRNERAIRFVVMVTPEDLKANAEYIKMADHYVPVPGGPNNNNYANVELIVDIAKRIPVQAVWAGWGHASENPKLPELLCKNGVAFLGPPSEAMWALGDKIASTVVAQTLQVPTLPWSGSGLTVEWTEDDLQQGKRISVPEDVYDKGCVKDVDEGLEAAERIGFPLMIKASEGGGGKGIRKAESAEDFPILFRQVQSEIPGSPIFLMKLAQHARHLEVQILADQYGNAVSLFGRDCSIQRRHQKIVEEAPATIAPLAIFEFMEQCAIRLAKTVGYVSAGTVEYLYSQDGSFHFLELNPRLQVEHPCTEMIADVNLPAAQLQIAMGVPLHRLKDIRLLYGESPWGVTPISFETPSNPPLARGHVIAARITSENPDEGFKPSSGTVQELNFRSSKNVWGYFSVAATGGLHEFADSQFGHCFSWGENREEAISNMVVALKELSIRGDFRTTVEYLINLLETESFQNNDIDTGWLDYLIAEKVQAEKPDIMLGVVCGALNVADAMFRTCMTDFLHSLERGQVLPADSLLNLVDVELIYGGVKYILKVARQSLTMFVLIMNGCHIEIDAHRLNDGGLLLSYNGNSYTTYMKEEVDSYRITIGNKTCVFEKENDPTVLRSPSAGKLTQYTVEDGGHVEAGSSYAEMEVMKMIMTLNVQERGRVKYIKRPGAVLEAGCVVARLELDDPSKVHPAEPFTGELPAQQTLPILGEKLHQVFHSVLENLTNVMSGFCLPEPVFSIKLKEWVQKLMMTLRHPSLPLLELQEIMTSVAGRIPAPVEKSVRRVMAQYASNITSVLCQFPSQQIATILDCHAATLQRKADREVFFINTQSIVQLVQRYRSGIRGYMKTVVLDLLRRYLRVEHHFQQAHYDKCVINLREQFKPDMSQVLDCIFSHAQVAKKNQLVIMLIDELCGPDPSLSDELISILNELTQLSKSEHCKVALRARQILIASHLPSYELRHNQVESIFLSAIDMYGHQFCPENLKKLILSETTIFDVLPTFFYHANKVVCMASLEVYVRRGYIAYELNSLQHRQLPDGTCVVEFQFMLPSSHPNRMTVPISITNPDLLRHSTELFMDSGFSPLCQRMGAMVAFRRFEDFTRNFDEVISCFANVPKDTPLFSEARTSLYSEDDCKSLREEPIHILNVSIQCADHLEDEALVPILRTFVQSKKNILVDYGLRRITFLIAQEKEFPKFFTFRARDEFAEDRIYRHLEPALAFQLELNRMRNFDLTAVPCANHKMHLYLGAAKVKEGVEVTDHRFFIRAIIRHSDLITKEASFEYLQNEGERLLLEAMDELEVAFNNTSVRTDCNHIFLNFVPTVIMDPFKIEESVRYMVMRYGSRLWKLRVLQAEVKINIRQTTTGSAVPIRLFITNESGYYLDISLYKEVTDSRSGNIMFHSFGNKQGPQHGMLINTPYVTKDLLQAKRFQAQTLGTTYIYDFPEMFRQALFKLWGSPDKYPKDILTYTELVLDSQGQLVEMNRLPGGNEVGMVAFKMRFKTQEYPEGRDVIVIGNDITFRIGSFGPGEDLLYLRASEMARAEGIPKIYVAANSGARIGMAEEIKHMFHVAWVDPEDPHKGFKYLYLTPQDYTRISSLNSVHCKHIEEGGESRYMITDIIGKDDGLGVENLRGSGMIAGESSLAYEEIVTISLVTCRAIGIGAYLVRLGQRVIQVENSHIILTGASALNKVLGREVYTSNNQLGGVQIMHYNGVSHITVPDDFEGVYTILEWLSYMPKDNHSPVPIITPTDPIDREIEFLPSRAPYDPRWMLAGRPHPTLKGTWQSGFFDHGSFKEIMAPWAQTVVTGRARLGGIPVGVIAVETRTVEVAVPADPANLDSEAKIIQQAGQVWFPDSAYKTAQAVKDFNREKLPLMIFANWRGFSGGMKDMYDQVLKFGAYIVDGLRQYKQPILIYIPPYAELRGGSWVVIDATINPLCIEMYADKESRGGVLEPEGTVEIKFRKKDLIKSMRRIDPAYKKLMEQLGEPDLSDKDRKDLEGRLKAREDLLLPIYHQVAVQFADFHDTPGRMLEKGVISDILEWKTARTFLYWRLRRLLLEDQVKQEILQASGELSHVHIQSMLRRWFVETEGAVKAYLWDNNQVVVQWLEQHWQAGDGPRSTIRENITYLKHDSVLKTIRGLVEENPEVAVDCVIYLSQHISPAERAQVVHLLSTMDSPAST
UniProt Q99798: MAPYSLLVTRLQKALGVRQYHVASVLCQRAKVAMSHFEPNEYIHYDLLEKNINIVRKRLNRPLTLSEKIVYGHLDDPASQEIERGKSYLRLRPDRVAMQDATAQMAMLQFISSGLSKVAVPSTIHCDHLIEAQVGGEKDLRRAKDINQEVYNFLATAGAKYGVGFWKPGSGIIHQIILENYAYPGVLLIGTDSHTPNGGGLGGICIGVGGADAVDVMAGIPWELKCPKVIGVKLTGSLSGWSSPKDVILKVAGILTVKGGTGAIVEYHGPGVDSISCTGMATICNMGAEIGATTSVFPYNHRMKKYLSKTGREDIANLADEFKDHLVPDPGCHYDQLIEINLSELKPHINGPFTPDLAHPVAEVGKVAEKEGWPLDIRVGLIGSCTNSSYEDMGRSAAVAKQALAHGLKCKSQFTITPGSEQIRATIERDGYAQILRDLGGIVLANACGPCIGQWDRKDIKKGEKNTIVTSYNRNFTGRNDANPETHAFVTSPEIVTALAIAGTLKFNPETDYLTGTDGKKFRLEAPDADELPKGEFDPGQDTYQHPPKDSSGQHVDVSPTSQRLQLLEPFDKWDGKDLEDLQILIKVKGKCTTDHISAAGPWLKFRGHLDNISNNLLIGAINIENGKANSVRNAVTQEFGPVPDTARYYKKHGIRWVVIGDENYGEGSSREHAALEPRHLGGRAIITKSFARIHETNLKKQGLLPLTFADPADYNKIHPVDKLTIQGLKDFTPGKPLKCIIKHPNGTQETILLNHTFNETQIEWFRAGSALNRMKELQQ
UniProt Q9UKV3: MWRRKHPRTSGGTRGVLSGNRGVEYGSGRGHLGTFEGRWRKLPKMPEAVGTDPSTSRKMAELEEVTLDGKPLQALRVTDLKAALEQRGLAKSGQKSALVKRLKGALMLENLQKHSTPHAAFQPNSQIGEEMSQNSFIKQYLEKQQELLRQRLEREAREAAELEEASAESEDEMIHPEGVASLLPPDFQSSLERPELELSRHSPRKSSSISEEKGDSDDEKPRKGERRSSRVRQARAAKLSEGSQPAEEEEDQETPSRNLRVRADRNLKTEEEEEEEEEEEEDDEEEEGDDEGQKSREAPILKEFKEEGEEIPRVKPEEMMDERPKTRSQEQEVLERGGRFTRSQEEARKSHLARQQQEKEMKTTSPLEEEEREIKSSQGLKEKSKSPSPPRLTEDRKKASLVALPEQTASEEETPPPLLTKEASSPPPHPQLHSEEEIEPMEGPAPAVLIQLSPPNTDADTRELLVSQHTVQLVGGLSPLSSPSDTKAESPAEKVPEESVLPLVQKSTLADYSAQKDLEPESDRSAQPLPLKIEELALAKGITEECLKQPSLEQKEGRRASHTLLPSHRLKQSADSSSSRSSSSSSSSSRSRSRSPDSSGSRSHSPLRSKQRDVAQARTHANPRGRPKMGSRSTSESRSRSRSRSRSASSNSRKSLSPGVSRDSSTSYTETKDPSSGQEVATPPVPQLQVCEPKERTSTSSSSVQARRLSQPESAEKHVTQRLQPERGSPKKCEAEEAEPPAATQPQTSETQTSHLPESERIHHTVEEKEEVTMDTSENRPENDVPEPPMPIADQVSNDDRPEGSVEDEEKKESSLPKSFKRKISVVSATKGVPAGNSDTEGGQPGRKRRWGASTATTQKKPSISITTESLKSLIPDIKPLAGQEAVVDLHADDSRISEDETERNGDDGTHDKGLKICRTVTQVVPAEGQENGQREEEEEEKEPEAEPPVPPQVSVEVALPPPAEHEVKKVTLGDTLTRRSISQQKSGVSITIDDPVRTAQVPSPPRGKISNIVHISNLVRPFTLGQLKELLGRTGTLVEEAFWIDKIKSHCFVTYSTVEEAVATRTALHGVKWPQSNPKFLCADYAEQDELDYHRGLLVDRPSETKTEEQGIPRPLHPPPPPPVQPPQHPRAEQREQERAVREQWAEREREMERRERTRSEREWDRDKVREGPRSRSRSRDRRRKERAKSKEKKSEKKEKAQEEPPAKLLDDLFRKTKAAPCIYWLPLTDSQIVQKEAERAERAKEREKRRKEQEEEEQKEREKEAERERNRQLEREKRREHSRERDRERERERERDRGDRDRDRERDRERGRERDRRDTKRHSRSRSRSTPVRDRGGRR
UniProt Q9NX38: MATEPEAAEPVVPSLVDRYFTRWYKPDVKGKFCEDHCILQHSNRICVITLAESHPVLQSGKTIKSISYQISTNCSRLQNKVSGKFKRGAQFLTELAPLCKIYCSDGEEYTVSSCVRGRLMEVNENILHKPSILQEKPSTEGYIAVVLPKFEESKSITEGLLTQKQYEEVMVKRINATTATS
UniProt Q9ULC5: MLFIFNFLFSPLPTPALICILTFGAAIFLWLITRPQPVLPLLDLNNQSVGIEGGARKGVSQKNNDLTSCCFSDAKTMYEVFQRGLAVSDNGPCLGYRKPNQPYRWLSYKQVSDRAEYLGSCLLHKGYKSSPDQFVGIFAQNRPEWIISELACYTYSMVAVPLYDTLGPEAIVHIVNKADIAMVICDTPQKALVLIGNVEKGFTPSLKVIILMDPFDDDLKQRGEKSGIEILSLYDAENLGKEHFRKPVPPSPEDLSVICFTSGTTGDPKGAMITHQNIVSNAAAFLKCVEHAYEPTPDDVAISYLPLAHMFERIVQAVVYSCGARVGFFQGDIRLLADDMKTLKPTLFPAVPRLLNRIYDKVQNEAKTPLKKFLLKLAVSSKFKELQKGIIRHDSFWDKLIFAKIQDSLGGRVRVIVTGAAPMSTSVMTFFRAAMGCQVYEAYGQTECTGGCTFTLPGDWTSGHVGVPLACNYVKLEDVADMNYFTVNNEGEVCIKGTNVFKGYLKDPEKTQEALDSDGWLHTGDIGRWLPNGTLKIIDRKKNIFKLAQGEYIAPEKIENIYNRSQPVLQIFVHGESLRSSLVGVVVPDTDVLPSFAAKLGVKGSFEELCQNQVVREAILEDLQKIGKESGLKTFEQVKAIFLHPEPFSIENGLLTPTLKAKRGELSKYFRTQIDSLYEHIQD

log2 fold change, inactive:
ACAT1, A0A5F9ZHJ0 -0.015
ACTN4 (UniProt K7EJH8) -0.035
ACSS1 (UniProt Q9NUB1) -0.027
ABL1 isoform 2 (UniProt P00519) 0.041
ABRAXAS1 (UniProt Q6UWZ7) 0.118
ACAA2 (UniProt K7ER88) 0.164

compound: CN1C2=C(C3=C1C(=O)N(N=C3)CC4=CC(=CC=C4)N)SC(=C2)S(=O)C; assay: as above
How it was run: as §1

log2 fold change, inactive:
ACSF3 (UniProt Q4G176) 0.016
ACAT1, A0A5F9ZHJ0 -0.014
AAMP (UniProt Q13685) -0.004
ACADVL isoform 3 (UniProt P49748) -0.054
ACSL1 (UniProt P33121) -0.064
ABCA3 (UniProt Q99758) -0.013
ACVR1 (UniProt Q04771) -0.111
AAGAB (UniProt Q6PD74) 0.125
ACP2 (UniProt P11117) 0.013
ACACB (UniProt O00763) 0.308
AAR2 (UniProt Q9Y312) -0.087
ACP1 (UniProt P24666) 0.099
ACO2 (UniProt Q99798) -0.118
ACIN1 (UniProt Q9UKV3) -0.021
AARSD1 (UniProt Q9BTE6) 0.283
ADAMTS13 (UniProt Q76LX8) 0.187
ABHD11 (UniProt Q8NFV4) -0.033
ACTN4 (UniProt K7EJH8) -0.019
ABHD16A (UniProt O95870) -0.076
ACADM isoform 2 (UniProt P11310) -0.078
ABITRAM (UniProt Q9NX38) -0.034
AAK1 (UniProt Q2M2I8) -0.108
AARSD1 isoform 3 (UniProt Q9BTE6) 0.02
ACTBL2 (UniProt Q562R1) 0.011
ACTG1 (UniProt K7EM38) 0.012
ACTR1B (UniProt P42025) -0.089
AARS2 (UniProt Q5JTZ9) -0.062
ACSL5 isoform 3 (UniProt Q9ULC5) -0.216
ACSS1 (UniProt Q9NUB1) -0.081
ABL1 isoform 2 (UniProt P00519) 0.064
ABRAXAS1 (UniProt Q6UWZ7) 0.164
ACAP2 (UniProt Q15057) -0.004

Reference: the supplement of paper PMC10849652
